Reference: the supplement of paper PMC3334620
Over roughly 33,000 sequences, “E-score (-0.5 to 0.5)” has its median near -0.0034; the highest 2% begin near 0.25. The list shows a part of the results.

Each sequence was assayed against T1, Yap3 (UniProt P38749) (assay: PBM E-score (8-mer binding enrichment) (E-score (-0.5 to 0.5)); higher = stronger / more preferred TF binding). Details: protein concentration: 100 nM; construct: GST-full length.
T1 sequence: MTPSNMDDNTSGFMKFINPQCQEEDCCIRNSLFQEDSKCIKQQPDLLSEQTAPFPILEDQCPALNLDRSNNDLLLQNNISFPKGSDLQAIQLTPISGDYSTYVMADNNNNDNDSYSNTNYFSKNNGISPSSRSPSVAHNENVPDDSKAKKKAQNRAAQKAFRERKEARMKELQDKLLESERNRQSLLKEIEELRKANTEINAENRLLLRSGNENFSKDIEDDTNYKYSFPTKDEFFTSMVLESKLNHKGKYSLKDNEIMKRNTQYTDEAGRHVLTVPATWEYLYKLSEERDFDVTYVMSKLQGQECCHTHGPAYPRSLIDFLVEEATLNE
Protocol: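 Universal 'all 10-mer' protein binding microarrays (Agilent AMADID 015681) probed with GST-tagged S. cerevisiae TFs (full-length or DBD) made by in vitro transcription/translation (PURExpress), about 100-200 nM. Bound TF was detected with fluorescent anti-GST. Each ungapped 8-mer (which stands for itself and its reverse complement) is scored by the PBM enrichment score (E-score), a modified Wilcoxon-Mann-Whitney statistic from -0.5 to +0.5, computed with the Universal PBM Analysis Suite. Scale: above 0.35 generally sequence-specific binding.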

Sequence | PBM E-score
CGGGTAAC | -0.0884
GCAATCGA | -0.0064
GTATCCAA | -0.00123
GAATTCAC | 0.0425
GAAAGTCC | -0.0887
ATTGACAG | 0.0838
CCATGTGA | -0.094
CACCGGAA | 0.125
TCCAATCA | -0.0573
CTCGTTGA | -0.136
AAATTAGA | 0.201
ACGTTAGG | -0.075
ACGAACGC | 0.101
AGCTACGC | -0.254
TAAAGAAA | 0.196
CTTCTCTC | -0.0723
CTTAGCTA | 0.0773
ACGCCTCG | -0.118
CGCGGATA | 0.241
ACTGAAAA | -0.0022
GGTAGTCA | -0.176
ATCACCAG | 0.0332
ACAAGGGT | -0.0448
AAGGATAG | 0.089
CTGACCGC | -0.137

Sequence | PBM E-score
TCATAGGA | 0.106
ACATGGGT | -0.0457
TCATGGAA | 0.036
AGTAGCAC | -0.0323
GGAACTCA | -0.166
GTATTCGA | -0.147
GTGGGCGA | 0.043
ACGGATCT | -0.0498
CAGAGGAC | -0.0561
ACTAGTAT | 0.197
ATAGAACC | -0.109
ACAGACCA | 0.213
CCGGAGAC | -0.0864
GCGTTGTA | 0.147
CTAGCCAC | -0.21
CCATGAAA | 0.109
CAGGGCGC | -0.0782
GGCGACAA | -0.181
ACAGCCAA | -0.0969
CGCGGAAC | 0.0584
TCAGTCAA | 0.0595
GATTGCGC | 0.0225
AGCGGAGA | 0.226
ACAAGGGC | -0.214
AGTGTAAG | 0.102

As entered above:
AAATTAGA | PBM E-score: 0.201
GATTGCGC | PBM E-score: 0.0225
CGCGGATA | PBM E-score: 0.241
CTAGCCAC | PBM E-score: -0.21
ACAGACCA | PBM E-score: 0.213
CTTCTCTC | PBM E-score: -0.0723

Going on with the list:

Sequence | PBM E-score
CCCTAAGG | -0.281
CATAGCTA | -0.119
CGAGGCCA | -0.102
ATGGAGAG | -0.0561
GTCGGATA | 0.0653
ACTATATC | 0.227
CCCGTGAC | -0.198
AGGCGACG | -0.00164
GGGGACCC | -0.395
AATCTCCT | -0.0372
ATTTCACC | 0.0904
CAACGTTC | -0.0508
ACTCAAGG | -0.168
TACCCCGA | -0.019
GTACAAAA | 0.233
CTGTTGAA | -0.0364
ATCGTGTG | 0.132
CTTTCCTA | 0.0167
AGGTTGGA | 0.0606
ACTTTAAC | 0.0581
ACTGGTTA | 0.00084
ACAGGCCA | -0.083
ATTTTGGC | 0.238
AGAAGTAG | 0.00557
ATATCCCA | 0.0917

Sequence | PBM E-score
CGTCAATC | 0.0678
CAGTTGTA | 0.0508
AGCGGTTA | -0.0396
AGGGAGCG | -0.212
ATGCCTTC | -0.171
ACGATTGG | 0.0545
CCATCTCG | 0.0193
CTGGTGTA | -0.0509
CATACCGG | -0.0569
ATATTCAT | 0.172
ACCGTCTC | 0.0687
CCGTTGAC | -0.172
CCTTTCCC | -0.0663
ATGTAAAA | 0.173
ACCGACCA | 0.0683
ATCAAGGA | 0.0728
AAAGATCA | 0.0103
ACACCTAC | 0.0957
ATTCATAC | 0.189
AACCATCA | 0.112
ACAACAGG | -0.0616
GATTTTAA | 0.2
ATGAGTGC | 0.122
ATGCAAAT | 0.0519
CTAAAAAA | 0.183

Sequence | PBM E-score
CAAGGTAA | 0.0895
CTCTTATC | 0.131
CTTATCAA | 0.204
ATGGATTG | 0.188
AAAATCAG | 0.107
AGAGAAGC | -0.0978
GGCTGGCA | -0.378
GCTCTACA | 0.0617
AGTACTAC | 0.134
ATAGGCAC | -0.0964
ACTATACG | 0.108
AGTTAGCA | 0.119
AGCGGTAA | 0.0618
AATAAAGA | 0.156
AATGCATA | 0.0923
ACCAGAGG | -0.119
ACAATAGG | 0.088
CCGGGATC | -0.105
TCGTCTAA | -0.0806
AGAGGCCA | -0.185
GACTCCTC | -0.036
AGTGCGAG | -0.0671
CGTATCTC | -0.0678
ATAGTCTG | 0.0847
AGCCCGAT | -0.11

Sequence | PBM E-score
TGTCCCAA | -0.166
ATCGTGGG | 0.11
GAGCGAGC | 0.00163
AACAGGGG | -0.00938
GCTTCGCA | -0.166
AGGGCAAG | 0.0117
ATACGATG | 0.066
ACTGTCTA | -0.0396
ACTTCAAG | -0.0429
ACGTATGG | 0.0905
GTGAAGGA | 0.0852
CAAACCGA | -0.00591
CACAGCCC | -0.221
GCAAAGAA | 0.0916
AAAAATTT | 0.145
ACGAAAAT | 0.257
ATGAACAC | 0.0717
AGGCTTGG | -0.166
AACCCGCA | -0.0181
ACATAGTC | 0.0935
GAGTCGAC | 0.0559
AGAAAGTC | 0.0514
ATAAATCG | 0.109
ACCCTGCT | -0.174
CGTCGACA | 0.00884

Sequence | PBM E-score
GACAAGCC | -0.0729
ACTCTCAG | 0.0548
CTCCGAAC | -0.0453
ATGTGTTG | 0.198
CCATGAGC | -0.194
CCGGAAAC | -0.0123
GGTCAGAA | -0.119
GGAATTAA | 0.233
CATACAAG | 0.00251
CTCCCAAC | -0.195
CTCGTCGC | 0.00055
AGGTCAAA | -0.0362
ACTCAGCA | 0.0153
GACTGGGA | 0.0479
GACAGGGC | -0.167
ATAGCGAG | 0.0819
GTCTTCGA | -0.122
CGAGTGAG | -0.0523
GGTTGCTA | -0.0649
ACCTGTGC | -0.0524
AGAACACT | 0.0137
GCGTCATA | 0.209
CTACCAAA | 0.00866
TCTCCAGA | -0.251
AAGAGTGA | -0.0417

Sequence | PBM E-score
CTAGGTCC | -0.0823
AGCCACCG | -0.111
TGCTCCCA | -0.0936
GGGTGCCA | -0.13
AGGTAAAA | 0.0276
TTGTACAA | 0.185
GCAGCTGA | 0.0588
AATCTTTG | 0.0886
CTACAAAA | 0.0817
GAACACCC | -0.207
GCGACAGA | 0.0746
ACCTGGAC | -0.196
AATTTATC | 0.325
AGTAAAGA | 0.16
CAAGACAA | 0.0625
AAAACTAT | 0.182
AATCGGAG | -0.0484
CTAGATAC | 0.0496
CAAAACAG | 0.17
GGGAACCA | -0.182
GAAAGGCC | -0.0874
GGGGACTA | -0.273
CTGGTACA | -0.0224
ATGGTTTG | 0.0243
GATTCCCC | -0.0797

Part of the list above, set out differently.
CCATGTGA
  PBM E-score = -0.094
ACGAACGC
  PBM E-score = 0.101
AGCCCGAT
  PBM E-score = -0.11
ACCTGTGC
  PBM E-score = -0.0524

Later entries:

Sequence | PBM E-score
AACTGTTG | -0.00018
GAAGTCGA | 0.0787
AGCCAAGC | -0.0982
GCTCTCAA | -0.0253
AAGCCGCA | -0.0498
ATAGCAGA | 0.0204
GCATGTAC | 0.105
CTCGTAAG | 0.257
CATAGCAA | 0.0682
GGTGAGCA | -0.124
ATTGCGAC | 0.157
CACTTCTC | -0.077
AGGCGGAT | -0.0189
GCGGTGGA | -0.0216
CCTTACTC | 0.183
CGAGTGCA | 0.0244
AGCTTATC | 0.0721
CGGCTGAG | -0.0827
CTCCCGAG | -0.198
